{"source": "the M2OR odorant receptor database", "note": "Some of the results follow. Calls are pooled over several reports, among them a noisy single-well screen.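 Also: active if original authors judged signal statistically different from baseline.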"}
{"test_system": "T1, O14L1", "T1 sequence (whole entry)": "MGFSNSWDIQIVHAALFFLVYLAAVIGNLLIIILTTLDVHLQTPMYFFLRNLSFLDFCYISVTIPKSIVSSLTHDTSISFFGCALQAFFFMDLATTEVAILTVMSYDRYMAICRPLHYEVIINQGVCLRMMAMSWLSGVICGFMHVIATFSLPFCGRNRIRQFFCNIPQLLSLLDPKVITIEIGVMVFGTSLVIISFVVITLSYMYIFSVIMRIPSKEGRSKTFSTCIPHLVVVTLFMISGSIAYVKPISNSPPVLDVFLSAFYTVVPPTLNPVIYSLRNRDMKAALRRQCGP", "conditions": "stereoisomer not certain", "method_in_brief": "(§1)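 Whether a receptor–molecule pair is responsive (active) rests on the original authors' judgment that its measured signal was statistically different from baseline. Pairs without that judgment are non-responsive (inactive). Sources used varied assay methods, commonly transient luciferase assays in mammalian cell lines.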"}
{"compound": "CC(C)C(=O)O", "odorant receptor agonist call": "inactive"}
{"compound": "CC12C=CCC1C1CCC3CC(=O)CCC3(C)C1CC2", "note": "(stereo not drawn)", "odorant receptor agonist call": "inactive"}
{"compound": "CC(=O)OC(C)(C)C1CC=C(C)CC1", "note": "(stereo not drawn)", "odorant receptor agonist call": "inactive"}
{"compound": "COc1ccccc1O", "odorant receptor agonist call": "inactive"}
{"compound": "CC(C)=CCCC(C)=CC=O", "odorant receptor agonist call": "inactive"}
{"compound": "CCCC(=O)O", "odorant receptor agonist call": "inactive"}
{"compound": "CCCCCCOC(=O)CCC", "odorant receptor agonist call": "inactive"}
{"compound": "CC(=O)OCC=C(C)CCC=C(C)C", "odorant receptor agonist call": "inactive"}
{"compound": "C=CC(C)(O)CCC=C(C)C", "note": "(stereo not drawn)", "odorant receptor agonist call": "inactive"}
{"compound": "C=CCc1ccc(OC)c(OC)c1", "odorant receptor agonist call": "inactive"}
{"compound": "CCC1(O)C2(C)CCC(C2)C1(C)C", "note": "(stereo not drawn)", "odorant receptor agonist call": "inactive"}
{"compound": "CCCCCCCC=CC=O", "odorant receptor agonist call": "active"}
{"compound": "COc1cc(C=O)ccc1O", "odorant receptor agonist call": "inactive"}
{"compound": "CC12CCC(CC1)C(C)(C)O2", "odorant receptor agonist call": "inactive"}
{"compound": "CC(C)(C)c1ccc(CCC=O)cc1", "odorant receptor agonist call": "inactive"}
{"compound": "CC1COCc2cc3c(cc21)C(C)(C)C(C)C3(C)C", "note": "(stereo not drawn)", "odorant receptor agonist call": "active"}
{"compound": "CC(C)C=O", "odorant receptor agonist call": "inactive"}
{"compound": "CC(C)CCC(=O)O", "odorant receptor agonist call": "inactive"}
{"compound": "CCC=CCCO", "odorant receptor agonist call": "inactive"}
{"compound": "CC(=O)C(C)=O", "odorant receptor agonist call": "inactive"}
{"compound": "CC(=O)OC1CC2CCC1(C)C2(C)C", "note": "(stereo not drawn)", "odorant receptor agonist call": "inactive"}
{"compound": "COc1cc(C)ccc1O", "odorant receptor agonist call": "inactive"}
{"compound": "CCCCCCCC=O", "odorant receptor agonist call": "inactive"}
{"compound": "CCCCCCCCOC(C)=O", "odorant receptor agonist call": "inactive"}
{"test_system": "T2, O2A14", "T2 sequence (whole entry)": "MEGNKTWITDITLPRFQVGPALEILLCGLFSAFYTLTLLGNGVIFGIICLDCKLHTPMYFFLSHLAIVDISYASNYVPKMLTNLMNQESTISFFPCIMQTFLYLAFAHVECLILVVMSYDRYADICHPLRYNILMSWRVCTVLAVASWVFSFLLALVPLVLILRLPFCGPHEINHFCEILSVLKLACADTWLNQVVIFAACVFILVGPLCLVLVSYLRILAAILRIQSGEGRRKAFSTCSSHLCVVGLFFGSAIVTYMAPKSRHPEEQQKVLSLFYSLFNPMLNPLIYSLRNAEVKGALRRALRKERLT", "conditions": "stereoisomer not certain", "method_in_brief": "as §1"}
{"compound": "CC(C)C(=O)O", "odorant receptor agonist call": "inactive"}
{"compound": "CC12C=CCC1C1CCC3CC(=O)CCC3(C)C1CC2", "note": "(stereo not drawn)", "odorant receptor agonist call": "inactive"}
{"compound": "CC(=O)OC(C)(C)C1CC=C(C)CC1", "note": "(stereo not drawn)", "odorant receptor agonist call": "inactive"}
{"compound": "COc1ccccc1O", "odorant receptor agonist call": "inactive"}
{"compound": "CC(C)=CCCC(C)=CC=O", "odorant receptor agonist call": "inactive"}
{"compound": "CCCC(=O)O", "odorant receptor agonist call": "inactive"}
{"compound": "CCCCCCOC(=O)CCC", "odorant receptor agonist call": "inactive"}
{"compound": "CC(=O)OCC=C(C)CCC=C(C)C", "odorant receptor agonist call": "inactive"}
{"compound": "C=CC(C)(O)CCC=C(C)C", "note": "(stereo not drawn)", "odorant receptor agonist call": "inactive"}
{"compound": "C=CCc1ccc(OC)c(OC)c1", "odorant receptor agonist call": "inactive"}
{"compound": "CCC1(O)C2(C)CCC(C2)C1(C)C", "note": "(stereo not drawn)", "odorant receptor agonist call": "inactive"}
{"compound": "CCCCCCCC=CC=O", "odorant receptor agonist call": "inactive"}
{"compound": "COc1cc(C=O)ccc1O", "odorant receptor agonist call": "inactive"}
{"compound": "CC12CCC(CC1)C(C)(C)O2", "odorant receptor agonist call": "inactive"}
{"compound": "CC(C)(C)c1ccc(CCC=O)cc1", "odorant receptor agonist call": "inactive"}
{"compound": "CC1COCc2cc3c(cc21)C(C)(C)C(C)C3(C)C", "note": "(stereo not drawn)", "odorant receptor agonist call": "active"}
{"compound": "CC(C)C=O", "odorant receptor agonist call": "inactive"}
{"compound": "CC(C)CCC(=O)O", "odorant receptor agonist call": "inactive"}
{"compound": "CCC=CCCO", "odorant receptor agonist call": "inactive"}
{"compound": "CC(=O)C(C)=O", "odorant receptor agonist call": "inactive"}
{"compound": "CC(=O)OC1CC2CCC1(C)C2(C)C", "note": "(stereo not drawn)", "odorant receptor agonist call": "inactive"}
{"compound": "COc1cc(C)ccc1O", "odorant receptor agonist call": "inactive"}
{"compound": "CCCCCCCC=O", "odorant receptor agonist call": "inactive"}
{"compound": "CCCCCCCCOC(C)=O", "odorant receptor agonist call": "inactive"}
